No constants are given. Whether binding was seen depends on the method and setting. In cells and extracts the contact can be indirect. Some results given as binding are weak or reduced against the parent protein; the word gives no strength. Where a sequence is shown, tags or fusion partners need not be part of it. Values belong to the binder of their own block, whether it stands above or below them.
Molecular target: T1, HSPC300-eGFP (Dictyostelium) (UniProt Q54X65)
T1 sequence: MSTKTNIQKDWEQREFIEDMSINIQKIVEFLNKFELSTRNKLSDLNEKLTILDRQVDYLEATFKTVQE
Experiment: pull-down; GFP-TRAP pulldown of HSPC300-eGFP expressed in Ax2, pkbA-, pkgB- and pkbA-/pkgB- cells; western blot for Pir121, Nap1, Scar, Abi and GFP

- binding: binds
B1: Pir121 (protein, UniProt Q6UK63 1-1336)
chain: MSVDPKQSKIADVFERCDVLESFPFHDDQSEIEEQSPSIGYDAYDKSLNYTDRGAYETQWSEETIGMEKMEEVLKQGDSFINMVYTYRSCSKALPTVKTAEQVNKTQIYEGNFEVLEPEIKKLKDFMYFQKDTIKLFCDHIKKLASTYDKKKETISASESFINYLVRILDLLAILDALKNMKACLNNDFSFFKRATGFLRKQMSGTEDQTQENHTLYLFLANQNSITSSLKLELHNIDKFDDILPMIVNQCADYLEQEKYILPSEKHCLLRVMPFVLFLIDENDSKHNINKNKNLNISRYAKIFKKNPVVPLYGDMQITLESLVKRSPHFDEKAWGTSTLDSKSALDYEIIHVLDQTRSLYNEYMARFANMVNEIRAAKARGPKEPLPLAESDIQAITLMGLRILSDWTSRVLQQSAWKYSKPNNDPTISATFDYERVVKFNYTKEERTALVQLIAMIKSLASLMMKSETLLQPILRKTIHQELQEFVQINLKETIKSFVKNNPKKKDNIKLEMSQLKNISVDWFSGFEPAEAVPNKKSKEVEEKVQIPARAVPPSPTQLELILTLVSSLMDKKKDFSSDQYRDFEAFSSKAFFYRYLLSLSSSIISITDLADLWYREFYLELNNRVQFPIETSLPWILTDHILESDDPSLIEHLFYPLGLYNDTAQRALLSLNQRFLYDEIEAELNLCFDQLLYKLSGKVYTHFKTQASSILLDKPYKTQLELAHFNGKLHTPKSRFDVLLRQKHITLLGRSIDLCGLLAQRQNNTIRQNLDYAISRFEACDLTSIVELETQIANIKLTHKLLSEYFDIDPFESIFNEINESTSLVSYHGRIVLHIIFELVADFAPNYTFNSITQRFIKAPYTFTEELKRDALPKTNPVFLFGNKYLNAAYANSIELYKNFIGVPHIQSILRIVGKKNLPLIVAEVLRNIEIKITNVLSPYVSELLQGMPASTKLPIYDYGTEGGYGYFQLKLKDIYIYPDLRPEVLQTFRELGNSLVFMNLLDQVITQTDSYNFAKAAPFLGITPETWKDLEPSTEDPTLQSPLYSQLQKLAQLLESRPEVAKSSQSLNDMVANAWRADKFYRPSEQNFSLFKSVLQRFSSILNIVRHDWSGAPPDNGVICVDSSTEFYRLWSALQFVICWPLSNENDKSFHELFGDGLMWAGCSLIHFLGQQYRFELFDFCYHILNVEEAAAVRSDKPALKNFFKNAQIIKDINNQIFSILNTYCPPPPPSNMILSPPATEQAEQFIVTTTVEEQSIQQQQQQQQQQQLQQSTSNSGSSLSLSAAGAPPPPPPPSTNGLPPPPPMAEYEMSSSIDDFAPPPPPPFGMPPPPPM

- binding: binds
B2: Abi (protein, UniProt Q55FT9 1-332)
chain: MSESIDINVYSQTTIPNAMAELMDNHNKMEQISAYCKSLYANGDAAQAYEQTQGYAKNALLNVAYHIQTVGTHITSLLQLQTNEMEKLNIEIQTLTQRVRMIHDSTGTNVFSNQDAAKPYKSSLKNRKVDTEATKAPVKYVHKPISYGISASDINQNGVPPPLNHSNSSANLTSSSGHLAASSTSNSSTPSYQSPSYSSQPTISSGTPPPIQKQPPRVGNAPPPPSLSVPAAPPPPVMNVPPPPPTSQRPSSVNNNAPSNDFPPPPPPSSSSSGGDLPPPPSFGLPPPPTLGDDFPPPPPPPVGSYDFPPPPARPQSQFYDHNDFPPPPPPM

- binding: binds
B3: Scar (protein, UniProt Q54NF8 1-443)
chain: MVLITRYLPSVTDNNQPALEGQSKDQIVDTVITSTTVGIINQLTMLVAHSNSIFTALANDANLVTQRIEKLGSRIRPLIQSIPSIEDYHRNTSIDTMNSKPRAEFHADNSERNQHFTHASIPASINTVYEKCKPPPNLQLLDPYMDDGQKSLKLYTNPDFFMDEWVAEQQKLHEEARQRKRERREARLKKKGEKNEVEVKKVKSVTKVRYDPVTGEKITINIESPHTSSPQIQHQSNNTATPQHTTQHFGTNQYQAPPPPPLSQSSPSQQHSPINSYTPPPPPLNTSTPSPSSSFQGRPPSTGFNTPPPPMSNNNNMPPPPPMQQNGGAANNRLSVHNSAPIVAAPAPPPPPPPPSAPAPPPPPMAKAGGGASDIKPKASGARSDLLSSIMQGMALKPAEERKVAEAPKKEEALNVADILARRIAWAGDSDSSEDESDDSDWD

- binding: binds
B4: Nap1 (protein, UniProt Q869Q3 1-1160)
chain: MAHTNLPEKFQVVIENGENILQRVYNTYKLFQNNKVKPSFFNDEKISKILKNLIAKYPELPENNDKSITGFDLLTSRAKQHLEELEDHYYTITDAYDWKEASFILMQEISSNTVSINFNNNIQLCSKFLDVLVLYGKINYLVSLIPDKKIITAVYAKLFLYTRSASEPTFSKMGRWINDIEQPFKKIQEEFRVLNDAVGHALSSFELTYAKRRVITQLRKDGALNLILKPEDIARPVQDSYRIELAYAGRIQQWILFGYLFAPGTLSTPQSIELLRFTLSECFYLSVFKDISISIHNEFNTLFKNYKSKTINLQKQKKIIKDAAQASTQEAPRKHAERRVYIRQELEAMWNLFRDKPCLLAPKINVLLAALSMAKEEIFWYFRHTDVIPPEKVKKFYNKQNEVREKRISSLLSLVDHLVQLVHTHKKMIQNYYLEYISGADILGLQKVITPQLLQNAGSIVTQAVNTIVNELKSLNANGQDYSFEGFRANWMRLGYLLQSNSCPLKESESKQITSRLNLIYTHSKNVDCLDQLLDEYGNMTQLWSYKEPLFHSFDAAIVDMTCDQPSHSMIYLKLLSQFPNHVANQFYPEEKELIGKECVELANSCLTKITNRIVSIMANTIASTFLSDEQQLADVNAAFPLLQKKKDWKPPKDFVPPIEPASESQFRNRANLEQLRSEEKNAFQLCTALNEFLDITIYDHIFVPREFLREKLGSALKQYMRQSIQPPAPTSSSSQIDINITRLSTYESQLRVFIGVLILVENHVDIDIGDLIRETILTEFYAKALGKSGRVDWFPEGEIEMNELTLHSITSYYVDLVSKKLNTPGVVFSPVKLGFISKAGTPFRAEEHADLTEMRALCDLVGPYGIKVIEREILRFILTTTTSMKEILSLNAANLEEFASNYYKPKAMELLKKFKTTDLDLIVTKSIAIGNALHLRSMIRESMKDVITDNFPYINNAVANAFDQYNRNTFMFPDFLGVDTLALDSGLNVGIADQYLKVILRKVSSEADKRIWELLPVMFSLTFYGNIWKETQYKATIDAHSNNVHVLSKTIIDLLIAFGAINSTTGNEAELFQSFKRFLEISSVNILRMFKGKQGEKFVPNEIQSVIIFLDKFTQQCPLLSKDSLEQYIPYSLIRNMYKDLYEHKNLQKQQSETSEQNF
